In article PMC8384837 one finds binding signal (log2 enrichment (interaction score)) data, which are given here for one sequence.

What all share (details): yeast three-hybrid, YBZ-1, SC-Leu-His + 0.5 mM 3-AT, 4 days
The target in assay [1] is T1, PUM1 PUF domain R1-GGQ S863G + R864G (Homo sapiens) (UniProt Q14671).
T1 sequence: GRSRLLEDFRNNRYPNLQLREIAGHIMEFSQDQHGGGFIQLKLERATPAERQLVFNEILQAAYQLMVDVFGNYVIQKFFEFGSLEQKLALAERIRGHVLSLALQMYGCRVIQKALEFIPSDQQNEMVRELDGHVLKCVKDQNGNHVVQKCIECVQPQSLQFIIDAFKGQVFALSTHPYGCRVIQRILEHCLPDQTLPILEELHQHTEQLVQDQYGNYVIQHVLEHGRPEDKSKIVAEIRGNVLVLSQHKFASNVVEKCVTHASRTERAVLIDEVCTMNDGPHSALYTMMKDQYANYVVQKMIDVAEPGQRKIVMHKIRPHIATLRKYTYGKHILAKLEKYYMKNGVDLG

The target of assay [2] is T2, PUM1 PUF domain R1-GGR S863G + R864G + Q867R (Homo sapiens) (UniProt Q14671).
T2 sequence: T1 sequence with Q40R

For assay [3], the target named is T3, PUM1 PUF domain R1-GHR S863G + R864H + Q867R (Homo sapiens) (UniProt Q14671).
T3 sequence: T1 sequence with G37H, Q40R

The target in assay [4] is T4, PUM1 PUF domain R1-GLR S863G + R864L + Q867R (Homo sapiens) (UniProt Q14671).
T4 sequence: T1 sequence with G37L, Q40R

The target in assay [5] is T5, PUM1 PUF domain R1-IRR S863I + Q867R (Homo sapiens) (UniProt Q14671).
T5 sequence: T1 sequence with G36I, G37R, Q40R

Assay [6] addresses T6, PUM1 PUF domain R1-KGR S863K + R864G + Q867R (Homo sapiens) (UniProt Q14671).
T6 sequence: T1 sequence with G36K, Q40R

Assay [7] addresses T7, PUM1 PUF domain R1-MRR S863M + Q867R (Homo sapiens) (UniProt Q14671).
T7 sequence: T1 sequence with G36M, G37R, Q40R

Assay [8] deals with T8, PUM1 PUF domain R1-NRR S863N + Q867R (Homo sapiens) (UniProt Q14671).
T8 sequence: T1 sequence with G36N, G37R, Q40R

Assay [9] addresses T9, PUM1 PUF domain R1-RAV S863R + R864A + Q867V (Homo sapiens) (UniProt Q14671).
T9 sequence: T1 sequence with G36R, G37A, Q40V

For assay [10], the target named is T10, PUM1 PUF domain R1-RKR S863R + R864K + Q867R (Homo sapiens) (UniProt Q14671).
T10 sequence: T1 sequence with G36R, G37K, Q40R

Assay [11] has as its target T11, PUM1 PUF domain R1-RLV S863R + R864L + Q867V (Homo sapiens) (UniProt Q14671).
T11 sequence: T1 sequence with G36R, G37L, Q40V

For assay [12], the target named is T12, PUM1 PUF domain R1-RMS S863R + R864M + Q867S (Homo sapiens) (UniProt Q14671).
T12 sequence: T1 sequence with G36R, G37M, Q40S

Assay [13] has as its target T13, PUM1 PUF domain R1-RNR S863R + R864N + Q867R (Homo sapiens) (UniProt Q14671).
T13 sequence: T1 sequence with G36R, G37N, Q40R

Assay [14] concerns the target T14, PUM1 PUF domain R1-RRI S863R + Q867I (Homo sapiens) (UniProt Q14671).
T14 sequence: T1 sequence with G36R, G37R, Q40I

The target in assay [15] is T15, PUM1 PUF domain R1-RRR S863R + Q867R (Homo sapiens) (UniProt Q14671).
T15 sequence: T1 sequence with G36R, G37R, Q40R

The target of assay [16] is T16, PUM1 PUF domain R1-SLR R864L + Q867R (Homo sapiens) (UniProt Q14671).
T16 sequence: T1 sequence with G36S, G37L, Q40R

Assay [17] addresses T17, PUM1 PUF domain R1-SPR R864P + Q867R (Homo sapiens) (UniProt Q14671).
T17 sequence: T1 sequence with G36S, G37P, Q40R

For assay [18], the target named is T18, PUM1 PUF domain R1-VFR S863V + R864F + Q867R (Homo sapiens) (UniProt Q14671).
T18 sequence: T1 sequence with G36V, G37F, Q40R

Assay [19] has as its target T19, PUM1 PUF domain R1-VRR S863V + Q867R (Homo sapiens) (UniProt Q14671).
T19 sequence: T1 sequence with G36V, G37R, Q40R

Assay [20] concerns the target T20, PUM1 PUF domain R1-VWK S863V + R864W + Q867K (Homo sapiens) (UniProt Q14671).
T20 sequence: T1 sequence with G36V, G37W, Q40K

Substitutions are numbered along the chain they refer to. Some of the results follow.

Turning to “GGCUAGAACUAGUGGAUCCCCCGGCGCCCGGCGGCUCGAGCCCGGGUAAGUGUAAAUGGUCUGCAUGCCGCCGGGCGCCAUGCCUGCAGGUCGACUCUAGAAAACAUG”, the binding signal (log2 enrichment (interaction score)) in [1] was -0.95; in assay [2], -0.74; in [3] it was -0.81; in assay [4], -0.65; in assay [5], -0.98; in [6] it was -1. Besides, the binding signal (log2 enrichment (interaction score)) in assay [7] is -0.76; in assay [8], -0.97; in [9] it was -1.43; in assay [10] it was -0.68; in assay [11], -0.73; in [12], -0.8. Further, the binding signal (log2 enrichment (interaction score)) in assay [13] was -1.08; in [14], -1.19; in assay [15], -1.03; in assay [16], -0.87; in [17], -1.35; in assay [18], -0.96. The binding signal (log2 enrichment (interaction score)) is -0.73 in assay [19] and -1.5 in assay [20].
